The values that follow come from US20040096878.

Construct, isoform or probe ends are uncertain for at least one entry. Results from cells or extracts need not show a direct contact.

The test system of this series is HuB (Hel-N2). Put plainly: pull-down. The note with it: mRNA enriched in RA-treated HuB mRNPs; SEQ 19 identical; protein in cells.

As for “UUUUUUAUUUUCUGUAUUUUUU [Neuronal-cadherin 3'-UTR segment 1]”, the binding result is “binds”.
